The other results are listed elsewhere or left out.

The chains behind the UniProt entries cited, without tags or fusion partners. Where a name states a change or a piece, a line headed by the entry shows the natural chain unless it says otherwise.
UniProt Q92925, whole entry, looked up: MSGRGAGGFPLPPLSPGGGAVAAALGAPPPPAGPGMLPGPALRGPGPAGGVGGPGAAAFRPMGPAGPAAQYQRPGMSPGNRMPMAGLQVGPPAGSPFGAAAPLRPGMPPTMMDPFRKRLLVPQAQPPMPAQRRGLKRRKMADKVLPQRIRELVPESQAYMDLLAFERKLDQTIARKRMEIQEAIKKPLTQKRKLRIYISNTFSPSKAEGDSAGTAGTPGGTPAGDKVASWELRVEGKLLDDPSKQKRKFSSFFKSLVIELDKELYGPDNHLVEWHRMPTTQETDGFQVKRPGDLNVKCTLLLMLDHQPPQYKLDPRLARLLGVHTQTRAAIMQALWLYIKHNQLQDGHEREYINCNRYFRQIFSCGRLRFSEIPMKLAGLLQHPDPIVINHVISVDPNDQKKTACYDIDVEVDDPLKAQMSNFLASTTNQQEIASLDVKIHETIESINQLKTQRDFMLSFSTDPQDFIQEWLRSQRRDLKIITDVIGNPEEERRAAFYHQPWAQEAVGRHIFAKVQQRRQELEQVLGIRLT
UniProt Q13424: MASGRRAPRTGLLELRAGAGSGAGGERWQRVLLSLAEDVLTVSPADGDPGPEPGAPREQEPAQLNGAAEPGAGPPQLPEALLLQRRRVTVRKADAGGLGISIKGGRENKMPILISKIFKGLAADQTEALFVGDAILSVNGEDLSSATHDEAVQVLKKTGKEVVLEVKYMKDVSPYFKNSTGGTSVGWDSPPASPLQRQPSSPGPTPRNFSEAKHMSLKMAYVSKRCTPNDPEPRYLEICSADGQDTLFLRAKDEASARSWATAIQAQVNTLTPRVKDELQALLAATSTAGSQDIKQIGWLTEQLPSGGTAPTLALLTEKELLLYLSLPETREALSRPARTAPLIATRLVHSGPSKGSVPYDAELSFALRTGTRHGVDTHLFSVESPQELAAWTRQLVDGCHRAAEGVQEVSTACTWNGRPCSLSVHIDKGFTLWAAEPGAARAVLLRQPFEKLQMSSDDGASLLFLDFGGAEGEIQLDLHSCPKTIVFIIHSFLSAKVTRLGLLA
UniProt Q96KF7: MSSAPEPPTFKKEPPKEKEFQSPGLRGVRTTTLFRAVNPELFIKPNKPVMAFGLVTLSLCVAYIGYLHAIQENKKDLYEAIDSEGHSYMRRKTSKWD
UniProt Q6IEG0: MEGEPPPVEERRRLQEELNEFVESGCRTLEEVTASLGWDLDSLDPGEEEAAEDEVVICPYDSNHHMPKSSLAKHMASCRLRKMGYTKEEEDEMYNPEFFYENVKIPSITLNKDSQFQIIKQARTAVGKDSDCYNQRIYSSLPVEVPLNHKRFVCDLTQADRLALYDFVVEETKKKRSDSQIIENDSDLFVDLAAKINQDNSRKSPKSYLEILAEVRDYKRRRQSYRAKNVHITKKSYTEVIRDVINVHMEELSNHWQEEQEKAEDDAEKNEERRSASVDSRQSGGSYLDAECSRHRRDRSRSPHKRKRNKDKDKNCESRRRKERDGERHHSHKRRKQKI
UniProt Q96EX1: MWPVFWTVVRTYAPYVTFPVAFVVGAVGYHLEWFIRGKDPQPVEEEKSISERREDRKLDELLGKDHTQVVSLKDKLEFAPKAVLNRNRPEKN
UniProt Q8N5G0: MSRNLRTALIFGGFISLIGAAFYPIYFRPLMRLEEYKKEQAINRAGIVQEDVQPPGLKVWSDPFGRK
UniProt P62308, whole entry, looked up: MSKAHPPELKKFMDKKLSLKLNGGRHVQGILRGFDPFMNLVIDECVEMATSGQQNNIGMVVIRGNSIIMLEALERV
UniProt O60749: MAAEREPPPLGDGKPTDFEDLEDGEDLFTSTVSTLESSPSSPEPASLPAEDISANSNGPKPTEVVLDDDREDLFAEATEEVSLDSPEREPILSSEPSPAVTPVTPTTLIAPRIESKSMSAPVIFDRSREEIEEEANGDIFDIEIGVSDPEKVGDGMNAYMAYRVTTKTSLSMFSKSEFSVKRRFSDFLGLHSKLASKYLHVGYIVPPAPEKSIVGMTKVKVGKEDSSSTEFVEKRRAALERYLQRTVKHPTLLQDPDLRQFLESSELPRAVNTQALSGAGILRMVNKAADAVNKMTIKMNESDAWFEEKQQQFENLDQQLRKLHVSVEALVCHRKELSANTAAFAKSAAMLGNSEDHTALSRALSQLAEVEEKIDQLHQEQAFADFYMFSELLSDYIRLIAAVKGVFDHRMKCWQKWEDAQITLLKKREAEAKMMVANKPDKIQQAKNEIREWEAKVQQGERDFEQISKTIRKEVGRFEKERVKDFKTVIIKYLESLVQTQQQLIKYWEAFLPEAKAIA
UniProt O95347, whole entry, looked up: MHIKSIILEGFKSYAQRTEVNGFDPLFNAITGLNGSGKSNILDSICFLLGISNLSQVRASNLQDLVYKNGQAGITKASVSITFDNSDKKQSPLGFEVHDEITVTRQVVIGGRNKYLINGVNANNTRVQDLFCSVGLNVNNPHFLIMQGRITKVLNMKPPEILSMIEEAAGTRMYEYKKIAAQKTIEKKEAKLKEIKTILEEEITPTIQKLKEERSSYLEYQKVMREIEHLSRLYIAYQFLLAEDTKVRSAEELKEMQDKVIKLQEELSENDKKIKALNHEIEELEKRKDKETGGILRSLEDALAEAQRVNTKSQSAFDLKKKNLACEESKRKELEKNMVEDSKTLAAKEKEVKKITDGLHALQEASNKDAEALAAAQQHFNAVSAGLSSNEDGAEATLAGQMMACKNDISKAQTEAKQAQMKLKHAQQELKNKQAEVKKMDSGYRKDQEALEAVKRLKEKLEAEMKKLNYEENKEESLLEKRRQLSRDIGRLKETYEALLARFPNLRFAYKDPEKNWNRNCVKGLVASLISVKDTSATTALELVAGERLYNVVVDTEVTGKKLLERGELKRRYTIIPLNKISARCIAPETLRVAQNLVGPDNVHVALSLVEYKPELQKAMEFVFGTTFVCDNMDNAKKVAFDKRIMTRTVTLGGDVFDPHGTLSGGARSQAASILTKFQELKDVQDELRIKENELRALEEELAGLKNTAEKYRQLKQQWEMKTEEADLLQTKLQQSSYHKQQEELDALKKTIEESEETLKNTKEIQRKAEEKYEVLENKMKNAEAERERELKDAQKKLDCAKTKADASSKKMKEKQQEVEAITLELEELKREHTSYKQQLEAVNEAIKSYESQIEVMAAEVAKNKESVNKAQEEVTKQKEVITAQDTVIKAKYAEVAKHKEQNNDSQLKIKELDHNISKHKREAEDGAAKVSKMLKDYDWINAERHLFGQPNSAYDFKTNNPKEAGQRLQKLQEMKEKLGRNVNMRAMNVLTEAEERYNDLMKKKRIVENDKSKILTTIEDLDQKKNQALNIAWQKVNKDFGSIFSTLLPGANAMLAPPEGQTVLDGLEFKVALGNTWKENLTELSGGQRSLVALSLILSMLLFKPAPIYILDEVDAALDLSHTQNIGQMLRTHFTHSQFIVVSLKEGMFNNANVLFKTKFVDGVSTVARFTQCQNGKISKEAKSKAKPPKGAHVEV
UniProt Q8ND04: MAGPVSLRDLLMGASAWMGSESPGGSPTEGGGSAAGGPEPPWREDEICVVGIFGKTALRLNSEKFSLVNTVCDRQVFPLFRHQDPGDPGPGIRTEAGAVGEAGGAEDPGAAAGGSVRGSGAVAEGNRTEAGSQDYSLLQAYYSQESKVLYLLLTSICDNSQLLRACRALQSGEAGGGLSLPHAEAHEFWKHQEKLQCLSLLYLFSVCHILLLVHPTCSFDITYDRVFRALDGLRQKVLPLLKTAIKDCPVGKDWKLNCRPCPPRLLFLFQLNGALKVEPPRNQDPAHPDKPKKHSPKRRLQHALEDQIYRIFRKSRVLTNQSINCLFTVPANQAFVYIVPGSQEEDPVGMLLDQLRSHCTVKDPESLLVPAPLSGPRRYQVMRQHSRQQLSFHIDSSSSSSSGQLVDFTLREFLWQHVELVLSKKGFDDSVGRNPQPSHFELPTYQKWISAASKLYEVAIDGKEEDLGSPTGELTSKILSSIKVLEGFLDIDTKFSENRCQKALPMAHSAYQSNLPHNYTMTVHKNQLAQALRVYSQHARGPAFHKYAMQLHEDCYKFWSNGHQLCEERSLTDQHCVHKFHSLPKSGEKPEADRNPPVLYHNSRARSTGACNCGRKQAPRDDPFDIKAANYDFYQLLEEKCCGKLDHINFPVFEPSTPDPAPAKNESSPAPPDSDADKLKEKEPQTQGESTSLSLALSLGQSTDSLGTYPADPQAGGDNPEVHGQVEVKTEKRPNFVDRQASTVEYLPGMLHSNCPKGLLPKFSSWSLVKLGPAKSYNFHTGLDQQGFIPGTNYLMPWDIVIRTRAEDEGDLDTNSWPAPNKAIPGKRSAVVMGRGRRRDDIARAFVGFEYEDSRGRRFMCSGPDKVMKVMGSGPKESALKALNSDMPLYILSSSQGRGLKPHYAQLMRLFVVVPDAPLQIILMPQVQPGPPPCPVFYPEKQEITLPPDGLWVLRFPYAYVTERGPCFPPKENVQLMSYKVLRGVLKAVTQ
UniProt P52788: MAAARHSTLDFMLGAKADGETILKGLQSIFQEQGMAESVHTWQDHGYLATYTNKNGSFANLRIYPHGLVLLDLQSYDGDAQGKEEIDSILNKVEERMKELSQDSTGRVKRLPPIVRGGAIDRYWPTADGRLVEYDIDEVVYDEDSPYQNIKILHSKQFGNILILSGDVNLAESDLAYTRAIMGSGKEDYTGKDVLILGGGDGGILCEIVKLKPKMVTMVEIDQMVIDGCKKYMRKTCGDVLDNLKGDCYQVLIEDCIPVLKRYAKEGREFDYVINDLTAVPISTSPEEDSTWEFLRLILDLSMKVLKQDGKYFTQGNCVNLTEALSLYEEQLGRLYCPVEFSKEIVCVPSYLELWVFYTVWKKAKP
UniProt O95295: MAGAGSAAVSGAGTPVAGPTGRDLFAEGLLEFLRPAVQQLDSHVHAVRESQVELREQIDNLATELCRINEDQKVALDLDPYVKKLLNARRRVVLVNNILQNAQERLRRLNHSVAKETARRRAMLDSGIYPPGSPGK
UniProt Q8IY18: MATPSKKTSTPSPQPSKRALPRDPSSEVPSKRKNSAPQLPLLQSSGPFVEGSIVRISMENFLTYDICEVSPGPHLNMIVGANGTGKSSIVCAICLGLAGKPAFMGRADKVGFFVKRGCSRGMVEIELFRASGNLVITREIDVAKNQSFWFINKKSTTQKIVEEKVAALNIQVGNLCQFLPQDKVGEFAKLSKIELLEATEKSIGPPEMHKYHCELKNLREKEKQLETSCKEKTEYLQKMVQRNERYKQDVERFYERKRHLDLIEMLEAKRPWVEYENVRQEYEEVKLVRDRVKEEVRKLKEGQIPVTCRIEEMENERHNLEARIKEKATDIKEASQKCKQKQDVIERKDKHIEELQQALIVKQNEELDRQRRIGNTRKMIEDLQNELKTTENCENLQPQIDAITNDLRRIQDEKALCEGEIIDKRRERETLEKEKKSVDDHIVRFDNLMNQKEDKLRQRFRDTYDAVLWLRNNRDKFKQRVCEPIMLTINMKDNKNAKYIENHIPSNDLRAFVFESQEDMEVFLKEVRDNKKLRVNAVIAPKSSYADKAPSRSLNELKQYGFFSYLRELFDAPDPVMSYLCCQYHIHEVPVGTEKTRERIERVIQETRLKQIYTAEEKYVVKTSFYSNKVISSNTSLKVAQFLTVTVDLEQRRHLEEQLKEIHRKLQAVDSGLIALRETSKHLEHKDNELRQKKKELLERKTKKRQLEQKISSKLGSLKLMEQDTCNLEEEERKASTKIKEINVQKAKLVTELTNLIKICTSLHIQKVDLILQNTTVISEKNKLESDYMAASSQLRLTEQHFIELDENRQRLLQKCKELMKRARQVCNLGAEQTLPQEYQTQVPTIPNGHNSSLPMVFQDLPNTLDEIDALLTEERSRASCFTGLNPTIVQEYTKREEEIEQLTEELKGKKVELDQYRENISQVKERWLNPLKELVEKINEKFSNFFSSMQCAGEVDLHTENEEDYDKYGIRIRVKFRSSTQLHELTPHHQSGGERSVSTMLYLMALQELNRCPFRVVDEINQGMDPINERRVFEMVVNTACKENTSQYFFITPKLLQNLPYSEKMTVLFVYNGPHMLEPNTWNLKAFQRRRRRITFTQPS
UniProt P35610: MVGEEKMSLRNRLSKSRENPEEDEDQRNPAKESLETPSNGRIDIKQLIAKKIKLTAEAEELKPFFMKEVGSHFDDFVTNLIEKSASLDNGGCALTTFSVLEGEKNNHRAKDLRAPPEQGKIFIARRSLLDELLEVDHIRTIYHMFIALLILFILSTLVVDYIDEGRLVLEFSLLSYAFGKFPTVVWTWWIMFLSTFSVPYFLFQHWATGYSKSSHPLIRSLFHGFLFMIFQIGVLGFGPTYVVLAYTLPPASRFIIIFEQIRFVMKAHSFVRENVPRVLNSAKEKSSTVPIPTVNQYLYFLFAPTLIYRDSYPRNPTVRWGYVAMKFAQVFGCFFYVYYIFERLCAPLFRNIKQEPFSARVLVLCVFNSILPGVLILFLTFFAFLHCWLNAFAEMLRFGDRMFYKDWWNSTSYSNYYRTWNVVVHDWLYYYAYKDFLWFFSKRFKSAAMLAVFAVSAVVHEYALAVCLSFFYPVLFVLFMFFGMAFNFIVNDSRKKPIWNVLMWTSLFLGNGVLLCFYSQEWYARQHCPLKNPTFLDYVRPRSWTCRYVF

The source of these data is the supplement of paper PMC10849652.

Compound in the assay: O=C1NC(=O)C(c2cnc3ccccn23)=C1c1cn2c3c(cc(F)cc13)CN(C(=O)N1CCCCC1)CC2
Put plainly: log2 fold change, soluble protein after heating vs DMSO (PISA); higher = thermal stabilisation; K562 lysate, 10 uM; active = over 0.2 and 3.5 SD of the protein, either way, in both replicates (recomputed). Summed up:
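Log-two fold change in thermal stability relative to solvent controls is reported from duplicates. For each sample, crude K562 extract from dounce-homogenised pellets in PBS pH 7.4 with 1 mM MgCl2, at 1 mg/mL protein, was treated with 10 μM compound for 30 min. Aliquots heated for 3 min across 48°C-58°C were pooled, brought to 0.5% NP-40 at 4°C and cleared at 21,000xg for 90 min. The supernatant was quantified by TMTpro 16plex LC-MS/MS with channel sums equalised.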
As for SMARCD2 (UniProt Q92925), the log2 fold change was inactive: 0.019.
The same measure for SNRNP200 (UniProt O75643): inactive: -0.004; for SPARC (UniProt P09486): inactive: 0.018.
The same measure for SNTA1 (UniProt Q13424): inactive: -0.035; for SNRPB isoform 3 (UniProt P14678): inactive: 0.02.
The same measure for SNX6, A0A0A0MRI2: inactive: 0.015.
Take SNUPN (UniProt O95149): the log2 fold change is inactive: -0.043.
SPAG5 (UniProt Q96R06): the log2 fold change was inactive: -0.007.
The same measure for SMIM8 (UniProt Q96KF7): inactive: -0.029; for SNRNP48 (UniProt Q6IEG0): inactive: 0.045; for SMARCD1 (UniProt Q96GM5): inactive: 0.013.
The same measure for SNX16 (UniProt P57768): inactive: -0.029; for SNX9 (UniProt Q9Y5X1): inactive: -0.023; for SMIM12 (UniProt Q96EX1): inactive: -0.025.
The same measure for SMIM20 isoform 2 (UniProt Q8N5G0): inactive: -0.057; for SP4 (UniProt Q02446): inactive: -0.043.
SNX8 (UniProt Q9Y5X2): the log2 fold change was inactive: 0.023.
In the case of SMARCC1 (UniProt Q92922), the log2 fold change was inactive: 0.017.
The same measure for SOS1 (UniProt Q07889): inactive: 0.034; for SOX5 (UniProt P35711): inactive: -0.027; for SNRPG (UniProt P62308): inactive: 0.021.
The same measure for SNX2 isoform 2 (UniProt O60749): inactive: 0.224; for SMARCE1 (UniProt Q969G3): inactive: -0.066; for SORD (UniProt Q00796): inactive: -0.019.
On to SNW1 (UniProt Q13573), for which the log2 fold change is inactive: -0.012.
As for SMC2 (UniProt O95347), the log2 fold change is inactive: -0.01.
Consider SMG8 isoform 2 (UniProt Q8ND04), for which the log2 fold change was inactive: 0.004.
The same measure for SMG5 (UniProt Q9UPR3): inactive: 0.024; for SMS (UniProt P52788): inactive: 0.008; for SNCA (UniProt P37840): inactive: -0.023.
The same measure for SNRPD2 (UniProt P62316): inactive: 0.015; for SNAPIN (UniProt O95295): inactive: 0.006.
Consider SMC5 (UniProt Q8IY18), for which the log2 fold change was inactive: 0.007.
With SMC1A (UniProt Q14683), the log2 fold change is inactive: -0.016.
As to SOAT1 (UniProt P35610), the log2 fold change is inactive: -0.037.
